# In the supplement of paper PMC8728848:
# The list shows a part of the results.
# B1: TAL6-4LysM (Trichoderma atroviride) (protein)
# chain: AADSIPSISPTGIITPTPTQSGMVSNCNKFYDVHSNDGCSAIASSQHVDLSSLYKWNPAIKTDCSGLQASVYVCIGILTTSMSTTSKLPTTTSKPSTTSKPPTGITTPTPTQSGMVKNCNKFYDVHSGDGCSAIASSQKVNLSSFYLWNPAVKTDCSGLQASVFVCIGTLTTSMSTTTSKLPTTTSKPSTTSKPPTGIITPTPTQNGMVKNCNKFYDVHSGDGCSAIASSQKVNLSSFYLWNPAVKTDCSGLQASVFVCVGTATTTTAAGITTPTPTQSGMVSGCNKFYDVHAGDGCSAIASSQKIALSSLYKWNPAVKTDCSGLQASVYICIGVGNAAAARVTGALEQKLISEEDLNSAVDHHHHHH
# What was measured:
# Assay in all cases: glycan array binding signal (z-score within array); higher = stronger binding
# Details in all cases: glycan notation: IUPAC condensed, linker removed
# [1] = molecular target: Neu5Ac(a2-6)GlcNAc(b1-4)GlcNAc(b1-4)GlcNAc
# Method in brief: (§1)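 The binding signal is a Z-score computed within each array and averaged over linkers. Arrays of the same protein sequence at different concentrations or buffers were also averaged together. Data originate from 3228 arrays in the Consortium for Functional Glycomics database, kept only where the protein sequence was available.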
# [2] = molecular target: Neu5Ac(a2-8)Neu5Ac
# Method in brief: as §1
# [3] = molecular target: Neu5Ac(a2-8)Neu5Ac(a2-3)Gal(b1-3)GalNAc(b1-4)[Neu5Ac(a2-3)]Gal(b1-4)Glc
# Method in brief: as §1
# [4] = molecular target: Neu5Ac(a2-8)Neu5Ac(a2-3)Gal(b1-3)GalNAc(b1-4)[Neu5Ac(a2-8)Neu5Ac(a2-3)]Gal(b1-4)Glc
# Method in brief: as §1
# [5] = molecular target: Neu5Ac(a2-8)Neu5Ac(a2-3)Gal(b1-4)Glc
# Method in brief: as §1
# [6] = molecular target: Neu5Ac(a2-8)Neu5Ac(a2-3)Gal(b1-4)GlcNAc
# Method in brief: as §1
# [7] = molecular target: Neu5Ac(a2-8)Neu5Ac(a2-3)[Gal(b1-3)GalNAc(b1-4)]Gal(b1-4)Glc
# Method in brief: as §1
# [8] = molecular target: Neu5Ac(a2-8)Neu5Ac(a2-3)[GalNAc(b1-4)]Gal(b1-4)Glc
# Method in brief: as §1
# [9] = molecular target: Neu5Ac(a2-8)Neu5Ac(a2-8)Neu5Ac
# Method in brief: as §1
# [10] = molecular target: Neu5Ac(a2-8)Neu5Ac(a2-8)Neu5Ac(a2-3)Gal(b1-4)Glc
# Method in brief: as §1
# [11] = molecular target: Neu5Ac(a2-8)Neu5Ac(a2-8)Neu5Ac(a2-3)[Gal(b1-3)GalNAc(b1-4)]Gal(b1-4)Glc
# Method in brief: as §1
# [12] = molecular target: Neu5Ac(a2-8)Neu5Ac(a2-8)Neu5Ac(a2-3)[GalNAc(b1-4)]Gal(b1-4)Glc
# Method in brief: as §1
# [13] = molecular target: Neu5Ac(a2-8)Neu5Ac(a2-8)Neu5Ac(a2-8)Neu5Ac(a2-3)[GalNAc(b1-4)]Gal(b1-4)Glc
# Method in brief: as §1
# [14] = molecular target: Neu5Ac(a2-8)Neu5Gc(a2-3)Gal(b1-4)GlcNAc
# Method in brief: as §1
# [15] = molecular target: Neu5Ac(b2-6)Gal(b1-4)GlcNAc
# Method in brief: as §1
# [16] = molecular target: Neu5Ac(b2-6)GalNAc
# Method in brief: as §1
# [17] = molecular target: Neu5Ac9Ac(a2-3)Gal(b1-3)GlcNAc
# Method in brief: as §1
# [18] = molecular target: Neu5Ac9Ac(a2-3)Gal(b1-4)GlcNAc
# Method in brief: as §1
# [19] = molecular target: Neu5Ac9Ac(a2-6)Gal(b1-4)GlcNAc
# Method in brief: as §1
# [20] = molecular target: Neu5Gc(a2-3)Gal(b1-3)GlcNAc
# Method in brief: as §1
# [21] = molecular target: Neu5Gc(a2-3)Gal(b1-3)[Fuc(a1-4)]GlcNAc
# Method in brief: as §1
# [22] = molecular target: Neu5Gc(a2-3)Gal(b1-4)Glc
# Method in brief: as §1
# [23] = molecular target: Neu5Gc(a2-3)Gal(b1-4)GlcNAc
# Method in brief: as §1
# [24] = molecular target: Neu5Gc(a2-3)Gal(b1-4)GlcNAc(b1-3)Gal(b1-4)GlcNAc(b1-2)Man(a1-3)[Neu5Gc(a2-3)Gal(b1-4)GlcNAc(b1-3)Gal(b1-4)GlcNAc(b1-2)Man(a1-6)]Man(b1-4)GlcNAc(b1-4)GlcNAc
# Method in brief: as §1
# [25] = molecular target: Neu5Gc(a2-3)Gal(b1-4)[Fuc(a1-3)]GlcNAc
# Method in brief: as §1
# [26] = molecular target: Neu5Gc(a2-6)Gal(b1-4)GlcNAc
# Method in brief: as §1
# [27] = molecular target: Neu5Gc(a2-6)GalNAc
# Method in brief: as §1
# [28] = molecular target: Neu5Gc(a2-8)Neu5Ac(a2-3)Gal(b1-4)GlcNAc
# Method in brief: as §1
# [29] = molecular target: Neu5Gc(a2-8)Neu5Gc(a2-3)Gal(b1-4)GlcNAc
# Method in brief: as §1
# [30] = molecular target: Neu5Gc(a2-8)Neu5Gc(a2-3)Gal(b1-4)GlcNAc(b1-3)Gal(b1-4)GlcNAc
# Method in brief: as §1
# [31] = molecular target: Neu5Gc(a2-8)Neu5Gc(a2-6)Gal(b1-4)GlcNAc
# Method in brief: as §1
# [32] = molecular target: Neu5Gc(b2-6)Gal(b1-4)GlcNAc
# Method in brief: as §1
binder,measurement,setting,value
B1,glycan array binding signal (z-score),[1],-0.723
same,glycan array binding signal (z-score),[2],0.607
same,glycan array binding signal (z-score),[3],-1.44
same,glycan array binding signal (z-score),[4],0.069
same,glycan array binding signal (z-score),[5],-1.49
same,glycan array binding signal (z-score),[6],1.21
same,glycan array binding signal (z-score),[7],-0.586
same,glycan array binding signal (z-score),[8],-0.463
same,glycan array binding signal (z-score),[9],0.49
same,glycan array binding signal (z-score),[10],-1.63
same,glycan array binding signal (z-score),[11],-0.364
same,glycan array binding signal (z-score),[12],-0.514
same,glycan array binding signal (z-score),[13],-0.204
same,glycan array binding signal (z-score),[14],0.658
same,glycan array binding signal (z-score),[15],-0.092
same,glycan array binding signal (z-score),[16],-1.17
same,glycan array binding signal (z-score),[17],0.627
same,glycan array binding signal (z-score),[18],-1.11
same,glycan array binding signal (z-score),[19],-0.388
same,glycan array binding signal (z-score),[20],0.456
same,glycan array binding signal (z-score),[21],0.443
same,glycan array binding signal (z-score),[22],-0.001
same,glycan array binding signal (z-score),[23],-1.52
same,glycan array binding signal (z-score),[24],-0.172
same,glycan array binding signal (z-score),[25],0.157
same,glycan array binding signal (z-score),[26],0.42
same,glycan array binding signal (z-score),[27],-0.226
same,glycan array binding signal (z-score),[28],0.186
same,glycan array binding signal (z-score),[29],-1.11
same,glycan array binding signal (z-score),[30],0.76
same,glycan array binding signal (z-score),[31],-0.801
same,glycan array binding signal (z-score),[32],-0.286

# For convenience, some entries already given.
binder,measurement,setting,value
B1,glycan array binding signal (z-score),[16],-1.17
same,glycan array binding signal (z-score),[17],0.627
